{"source": "PubChem BioAssay AID743454 – Peter MacCallum Cancer Centre, 2014", "aim": "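Knock-downs lowering viability or raising caspase 3/7 activity in vorinostat-treated resistant cells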 (primary screen)", "cells": "human HCT116-VR colon cancer cells, selected for vorinostat resistance", "knock-down reagent": "siRNA pool against human genes, 40 nM siRNA pool", "duration": "vorinostat for 24 h, read-out about 72 h after transfection", "challenge": "vorinostat at 2.5 µM final", "measurement": "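Two measures, CellTiter-Fluor viability and luminescent caspase 3/7 activity, each as fold change against same-plate mock wells, mean of duplicates, then screen-wide robust z-score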", "scale": "viability robust z-score: higher = more viable cells than screen typical; caspase robust z-score: higher = more caspase 3/7 activity than screen typical", "active means": "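a knock-down is a hit when classed RV1 or RV2 for lowered viability, or CA1 or CA2 for caspase activation; those lethal without drug were dropped; hits were retested singly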", "note": "This is a random part of about 18,000 reagents tested. 450 of them (2.5%) were called active. 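Single biological run; no consistent viability z cut-off exists, so the class columns, not z-scores, define the calls.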 Reagent sequences are not shown."}
{"Target gene": "GTF2F1", "viability hit class": "no change", "caspase hit class": "no change", "viability robust z-score": 1.5, "caspase robust z-score": 4.19, "Outcome": "inactive"}
{"Target gene": "GATM", "viability hit class": "no change", "caspase hit class": "no change", "viability robust z-score": -2.58, "caspase robust z-score": -0.08, "Outcome": "inactive"}
{"Target gene": "RAC2", "viability hit class": "no change", "caspase hit class": "no change", "viability robust z-score": -1.81, "caspase robust z-score": -0.2, "Outcome": "inactive"}
{"Target gene": "FAM3A", "viability hit class": "no change", "caspase hit class": "no change", "viability robust z-score": 0, "caspase robust z-score": 3.25, "Outcome": "inactive"}
{"Target gene": "DCANP1", "viability hit class": "no change", "caspase hit class": "no change", "viability robust z-score": -0.01, "caspase robust z-score": -0.58, "Outcome": "inactive"}
{"Target gene": "NTSR2", "viability hit class": "no change", "caspase hit class": "no change", "viability robust z-score": 0.14, "caspase robust z-score": 2.68, "Outcome": "inactive"}
{"Target gene": "OCLN", "viability hit class": "no change", "caspase hit class": "no change", "viability robust z-score": 1.49, "caspase robust z-score": -0.28, "Outcome": "inactive"}
{"Target gene": "OR4F3", "viability hit class": "no change", "caspase hit class": "no change", "viability robust z-score": 0.3, "caspase robust z-score": -0.28, "Outcome": "inactive"}
{"Target gene": "TYRO3", "viability hit class": "no change", "caspase hit class": "no change", "viability robust z-score": 0.66, "caspase robust z-score": -0.29, "Outcome": "inactive"}
{"Target gene": "OR9A2", "viability hit class": "no change", "caspase hit class": "no change", "viability robust z-score": -0.05, "caspase robust z-score": -0.28, "Outcome": "inactive"}
{"Target gene": "AGA", "viability hit class": "no change", "caspase hit class": "no change", "viability robust z-score": 0.51, "caspase robust z-score": -0.31, "Outcome": "inactive"}
{"Target gene": "CPO", "viability hit class": "no change", "caspase hit class": "no change", "viability robust z-score": -1.11, "caspase robust z-score": 3.87, "Outcome": "inactive"}
{"Target gene": "RPL39L", "viability hit class": "no change", "caspase hit class": "no change", "viability robust z-score": -0.76, "caspase robust z-score": 0.72, "Outcome": "inactive"}
{"Target gene": "IQGAP1", "viability hit class": "no change", "caspase hit class": "no change", "viability robust z-score": 0.45, "caspase robust z-score": 0.17, "Outcome": "inactive"}
{"Target gene": "OR51E1", "viability hit class": "no change", "caspase hit class": "no change", "viability robust z-score": 1.07, "caspase robust z-score": -0.77, "Outcome": "inactive"}
{"Target gene": "MID1", "viability hit class": "no change", "caspase hit class": "no change", "viability robust z-score": 0.42, "caspase robust z-score": -0.64, "Outcome": "inactive"}
{"Target gene": "MAS1L", "viability hit class": "no change", "caspase hit class": "no change", "viability robust z-score": 0.55, "caspase robust z-score": -0.44, "Outcome": "inactive"}
{"Target gene": "NOA1", "viability hit class": "no change", "caspase hit class": "no change", "viability robust z-score": -0.05, "caspase robust z-score": 0.1, "Outcome": "inactive"}
{"Target gene": "NAA30", "viability hit class": "no change", "caspase hit class": "no change", "viability robust z-score": -0.2, "caspase robust z-score": 0.26, "Outcome": "inactive"}
{"Target gene": "ZMYM4", "viability hit class": "no change", "caspase hit class": "no change", "viability robust z-score": -1.75, "caspase robust z-score": 2.26, "Outcome": "inactive"}
{"Target gene": "PRB4", "viability hit class": "no change", "caspase hit class": "no change", "viability robust z-score": -0.7, "caspase robust z-score": -0.71, "Outcome": "inactive"}

Targets above whose target name starts with G or g:
{"Target gene": "GTF2F1", "viability hit class": "no change", "caspase hit class": "no change", "viability robust z-score": 1.5, "caspase robust z-score": 4.19, "Outcome": "inactive"}
{"Target gene": "GATM", "viability hit class": "no change", "caspase hit class": "no change", "viability robust z-score": -2.58, "caspase robust z-score": -0.08, "Outcome": "inactive"}
